Laboratory results published in the supplement of paper PMC10849652.
Some of the results follow.

Protein sequences, listed by entry. Tags and fused reporters are not part of them. Lines headed by an entry give the natural chain unless they say otherwise; changes in a name come on top.
UniProt O95140: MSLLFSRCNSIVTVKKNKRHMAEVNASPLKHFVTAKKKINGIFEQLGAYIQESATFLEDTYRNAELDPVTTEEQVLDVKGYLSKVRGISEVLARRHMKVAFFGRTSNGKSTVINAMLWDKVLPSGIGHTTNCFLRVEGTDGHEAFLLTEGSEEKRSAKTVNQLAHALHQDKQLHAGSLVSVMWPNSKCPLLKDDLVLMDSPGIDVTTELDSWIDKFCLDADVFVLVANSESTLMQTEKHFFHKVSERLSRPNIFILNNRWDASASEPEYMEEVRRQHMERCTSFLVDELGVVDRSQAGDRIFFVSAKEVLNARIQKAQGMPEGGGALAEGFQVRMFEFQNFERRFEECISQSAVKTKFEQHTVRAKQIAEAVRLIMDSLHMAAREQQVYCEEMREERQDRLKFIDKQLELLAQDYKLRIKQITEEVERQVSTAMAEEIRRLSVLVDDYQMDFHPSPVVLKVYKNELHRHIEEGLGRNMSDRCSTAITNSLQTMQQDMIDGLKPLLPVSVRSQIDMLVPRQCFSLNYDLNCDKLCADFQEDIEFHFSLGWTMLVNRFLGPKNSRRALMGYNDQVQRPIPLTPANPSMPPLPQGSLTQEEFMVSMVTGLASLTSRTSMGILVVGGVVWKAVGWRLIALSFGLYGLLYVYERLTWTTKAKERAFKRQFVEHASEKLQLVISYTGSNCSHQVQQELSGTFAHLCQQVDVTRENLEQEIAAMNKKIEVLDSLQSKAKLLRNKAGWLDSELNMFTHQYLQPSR
UniProt Q9GZY8: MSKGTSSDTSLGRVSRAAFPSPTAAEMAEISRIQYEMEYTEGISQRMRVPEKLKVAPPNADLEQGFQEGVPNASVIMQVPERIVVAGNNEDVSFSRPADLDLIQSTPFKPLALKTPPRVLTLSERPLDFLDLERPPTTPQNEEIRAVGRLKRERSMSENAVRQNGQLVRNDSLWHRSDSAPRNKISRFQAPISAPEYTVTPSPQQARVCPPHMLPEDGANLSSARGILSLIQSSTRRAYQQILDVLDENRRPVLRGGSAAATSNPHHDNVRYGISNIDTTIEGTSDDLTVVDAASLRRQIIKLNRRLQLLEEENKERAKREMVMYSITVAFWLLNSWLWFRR
UniProt Q8NE86: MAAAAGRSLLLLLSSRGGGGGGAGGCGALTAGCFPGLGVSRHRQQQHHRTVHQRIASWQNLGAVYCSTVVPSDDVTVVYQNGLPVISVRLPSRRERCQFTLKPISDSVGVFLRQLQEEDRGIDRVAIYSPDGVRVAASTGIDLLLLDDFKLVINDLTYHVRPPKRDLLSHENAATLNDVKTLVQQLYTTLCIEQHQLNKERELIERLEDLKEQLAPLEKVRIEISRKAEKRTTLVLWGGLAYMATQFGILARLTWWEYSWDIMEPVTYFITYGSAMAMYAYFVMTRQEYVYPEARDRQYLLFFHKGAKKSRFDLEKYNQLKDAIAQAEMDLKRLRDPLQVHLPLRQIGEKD
UniProt Q9BV79: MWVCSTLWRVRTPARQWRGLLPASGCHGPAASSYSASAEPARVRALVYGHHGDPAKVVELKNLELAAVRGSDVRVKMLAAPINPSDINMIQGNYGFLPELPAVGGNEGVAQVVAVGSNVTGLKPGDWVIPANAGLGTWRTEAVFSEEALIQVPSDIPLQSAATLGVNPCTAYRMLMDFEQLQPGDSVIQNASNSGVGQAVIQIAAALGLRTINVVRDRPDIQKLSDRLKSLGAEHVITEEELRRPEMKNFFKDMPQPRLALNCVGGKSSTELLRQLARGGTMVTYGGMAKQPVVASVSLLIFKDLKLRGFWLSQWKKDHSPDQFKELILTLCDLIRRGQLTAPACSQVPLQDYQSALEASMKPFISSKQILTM
UniProt Q9UHV7: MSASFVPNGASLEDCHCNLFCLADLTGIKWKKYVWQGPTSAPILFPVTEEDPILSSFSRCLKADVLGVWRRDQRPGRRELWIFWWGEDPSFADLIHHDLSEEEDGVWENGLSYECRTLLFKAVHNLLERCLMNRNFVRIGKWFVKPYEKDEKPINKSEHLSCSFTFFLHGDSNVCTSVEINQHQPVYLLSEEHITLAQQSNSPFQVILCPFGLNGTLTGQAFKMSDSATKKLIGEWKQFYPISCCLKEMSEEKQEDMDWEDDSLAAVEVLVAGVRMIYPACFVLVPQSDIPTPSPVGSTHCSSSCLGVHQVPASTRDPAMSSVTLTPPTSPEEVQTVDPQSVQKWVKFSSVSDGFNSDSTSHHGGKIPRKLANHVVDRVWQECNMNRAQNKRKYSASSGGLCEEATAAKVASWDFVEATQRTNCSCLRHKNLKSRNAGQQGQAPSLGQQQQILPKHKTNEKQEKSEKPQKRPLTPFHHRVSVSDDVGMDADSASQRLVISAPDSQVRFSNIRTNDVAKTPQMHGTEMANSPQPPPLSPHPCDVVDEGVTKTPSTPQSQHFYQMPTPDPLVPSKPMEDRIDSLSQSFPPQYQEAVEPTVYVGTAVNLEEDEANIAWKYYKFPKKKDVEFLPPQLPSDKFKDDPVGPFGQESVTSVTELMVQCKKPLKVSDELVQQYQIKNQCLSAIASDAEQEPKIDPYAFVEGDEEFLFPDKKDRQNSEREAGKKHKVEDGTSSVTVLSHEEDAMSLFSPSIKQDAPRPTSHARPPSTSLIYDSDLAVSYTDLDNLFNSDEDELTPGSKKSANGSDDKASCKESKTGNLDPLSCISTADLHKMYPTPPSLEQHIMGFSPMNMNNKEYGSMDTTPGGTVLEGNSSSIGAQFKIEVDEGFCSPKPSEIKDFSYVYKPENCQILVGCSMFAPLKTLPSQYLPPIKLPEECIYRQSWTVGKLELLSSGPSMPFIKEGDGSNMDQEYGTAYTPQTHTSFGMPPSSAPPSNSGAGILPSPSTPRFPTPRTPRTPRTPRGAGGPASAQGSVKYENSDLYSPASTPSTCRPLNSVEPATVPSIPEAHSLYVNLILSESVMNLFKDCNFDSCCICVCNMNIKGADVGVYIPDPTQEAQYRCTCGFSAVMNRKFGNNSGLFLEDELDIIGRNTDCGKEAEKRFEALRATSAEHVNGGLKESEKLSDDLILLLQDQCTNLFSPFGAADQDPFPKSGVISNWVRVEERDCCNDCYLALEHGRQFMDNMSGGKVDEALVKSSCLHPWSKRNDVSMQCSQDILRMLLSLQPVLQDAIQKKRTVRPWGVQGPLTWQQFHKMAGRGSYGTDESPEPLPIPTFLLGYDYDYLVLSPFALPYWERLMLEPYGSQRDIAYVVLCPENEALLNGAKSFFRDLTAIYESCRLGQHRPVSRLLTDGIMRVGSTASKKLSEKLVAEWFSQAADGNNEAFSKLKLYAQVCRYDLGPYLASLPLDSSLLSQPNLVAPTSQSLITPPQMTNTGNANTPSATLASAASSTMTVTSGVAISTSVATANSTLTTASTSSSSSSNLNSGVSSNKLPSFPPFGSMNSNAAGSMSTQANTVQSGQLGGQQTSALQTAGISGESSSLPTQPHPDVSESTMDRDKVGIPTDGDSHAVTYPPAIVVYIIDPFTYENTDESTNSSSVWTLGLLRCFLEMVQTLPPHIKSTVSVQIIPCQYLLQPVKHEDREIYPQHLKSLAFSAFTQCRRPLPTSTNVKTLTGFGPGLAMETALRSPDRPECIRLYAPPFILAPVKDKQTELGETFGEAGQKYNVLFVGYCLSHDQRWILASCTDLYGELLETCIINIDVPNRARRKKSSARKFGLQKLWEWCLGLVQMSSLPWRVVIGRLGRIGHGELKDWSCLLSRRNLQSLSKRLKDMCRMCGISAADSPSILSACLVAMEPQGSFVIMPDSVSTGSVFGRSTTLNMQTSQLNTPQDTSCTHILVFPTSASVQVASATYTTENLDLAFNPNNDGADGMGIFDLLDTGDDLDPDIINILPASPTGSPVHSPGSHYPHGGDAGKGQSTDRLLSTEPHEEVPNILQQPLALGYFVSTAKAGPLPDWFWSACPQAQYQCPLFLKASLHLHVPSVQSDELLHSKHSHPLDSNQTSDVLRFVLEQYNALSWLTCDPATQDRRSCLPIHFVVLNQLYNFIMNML
UniProt Q68D91: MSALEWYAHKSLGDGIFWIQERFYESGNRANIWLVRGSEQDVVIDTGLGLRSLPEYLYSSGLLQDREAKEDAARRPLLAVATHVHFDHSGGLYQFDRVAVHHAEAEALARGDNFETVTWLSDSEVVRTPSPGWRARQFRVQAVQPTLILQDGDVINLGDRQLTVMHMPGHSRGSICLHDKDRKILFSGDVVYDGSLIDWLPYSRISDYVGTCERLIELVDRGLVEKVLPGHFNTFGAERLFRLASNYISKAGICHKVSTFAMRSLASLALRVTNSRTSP
UniProt P33991: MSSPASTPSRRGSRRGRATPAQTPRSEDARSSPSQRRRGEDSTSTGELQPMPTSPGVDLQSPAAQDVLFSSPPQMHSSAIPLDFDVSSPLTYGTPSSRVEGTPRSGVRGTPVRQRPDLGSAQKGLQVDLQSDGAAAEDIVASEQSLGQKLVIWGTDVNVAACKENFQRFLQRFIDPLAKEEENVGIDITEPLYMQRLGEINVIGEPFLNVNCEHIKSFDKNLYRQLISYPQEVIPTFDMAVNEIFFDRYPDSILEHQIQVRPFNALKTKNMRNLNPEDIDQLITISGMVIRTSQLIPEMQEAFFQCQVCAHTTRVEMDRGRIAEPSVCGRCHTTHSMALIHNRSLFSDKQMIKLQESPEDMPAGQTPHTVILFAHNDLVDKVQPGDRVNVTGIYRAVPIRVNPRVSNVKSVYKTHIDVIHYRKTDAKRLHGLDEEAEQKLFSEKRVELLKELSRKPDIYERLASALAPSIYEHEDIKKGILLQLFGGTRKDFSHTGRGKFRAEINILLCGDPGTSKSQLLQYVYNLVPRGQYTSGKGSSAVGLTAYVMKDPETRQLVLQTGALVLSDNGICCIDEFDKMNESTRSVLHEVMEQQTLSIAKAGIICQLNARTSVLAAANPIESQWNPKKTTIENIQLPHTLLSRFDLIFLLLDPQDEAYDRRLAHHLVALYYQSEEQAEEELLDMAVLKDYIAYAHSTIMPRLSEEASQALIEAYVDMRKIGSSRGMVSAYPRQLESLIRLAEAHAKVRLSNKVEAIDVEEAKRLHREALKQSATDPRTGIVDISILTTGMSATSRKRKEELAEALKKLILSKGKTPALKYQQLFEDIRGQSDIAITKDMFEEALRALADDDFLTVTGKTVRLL
UniProt O95568: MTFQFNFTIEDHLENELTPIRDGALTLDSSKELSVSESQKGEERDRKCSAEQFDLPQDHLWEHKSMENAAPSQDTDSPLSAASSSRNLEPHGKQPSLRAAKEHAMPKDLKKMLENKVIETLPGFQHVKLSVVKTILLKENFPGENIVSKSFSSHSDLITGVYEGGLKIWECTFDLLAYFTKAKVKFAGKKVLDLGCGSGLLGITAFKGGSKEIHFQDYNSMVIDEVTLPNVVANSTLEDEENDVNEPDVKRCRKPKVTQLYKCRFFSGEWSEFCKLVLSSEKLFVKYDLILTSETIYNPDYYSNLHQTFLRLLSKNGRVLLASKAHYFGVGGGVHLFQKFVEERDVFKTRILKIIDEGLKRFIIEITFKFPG
UniProt Q9BQP7: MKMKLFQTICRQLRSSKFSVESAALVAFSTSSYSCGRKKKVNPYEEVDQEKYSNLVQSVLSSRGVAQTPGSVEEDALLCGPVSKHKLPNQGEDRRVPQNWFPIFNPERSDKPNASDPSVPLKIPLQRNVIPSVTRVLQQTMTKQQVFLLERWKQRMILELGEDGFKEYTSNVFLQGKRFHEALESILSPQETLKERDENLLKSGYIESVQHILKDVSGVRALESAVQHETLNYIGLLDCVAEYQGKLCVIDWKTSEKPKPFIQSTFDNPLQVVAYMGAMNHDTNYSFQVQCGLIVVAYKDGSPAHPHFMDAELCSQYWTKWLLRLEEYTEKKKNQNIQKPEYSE
UniProt P23368: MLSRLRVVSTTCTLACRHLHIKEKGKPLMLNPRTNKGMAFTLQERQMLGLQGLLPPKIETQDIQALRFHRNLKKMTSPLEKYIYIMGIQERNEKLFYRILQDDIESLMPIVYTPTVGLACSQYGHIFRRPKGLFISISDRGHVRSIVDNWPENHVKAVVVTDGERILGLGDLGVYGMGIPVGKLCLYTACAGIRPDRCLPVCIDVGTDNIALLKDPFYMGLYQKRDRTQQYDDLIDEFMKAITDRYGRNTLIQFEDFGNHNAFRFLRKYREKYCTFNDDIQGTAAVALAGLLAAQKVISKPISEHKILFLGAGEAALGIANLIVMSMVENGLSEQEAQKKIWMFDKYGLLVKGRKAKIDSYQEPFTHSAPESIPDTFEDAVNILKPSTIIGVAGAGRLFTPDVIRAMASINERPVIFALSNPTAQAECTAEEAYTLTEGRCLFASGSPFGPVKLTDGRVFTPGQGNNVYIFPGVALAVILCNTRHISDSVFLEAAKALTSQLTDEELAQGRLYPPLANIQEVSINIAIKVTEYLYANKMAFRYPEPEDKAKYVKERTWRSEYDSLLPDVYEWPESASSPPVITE

Tests used:
Experiment in all cases: log2 fold change, soluble protein after heating vs DMSO (PISA); higher = thermal stabilisation; K562 cells, 10 uM, 30 min; active = over 0.2 and 3.5 SD of the protein, either way, in both replicates (recomputed)
[1] = compound: Cc1ccc(NC(=O)c2ccc(CN3CC[C@H](N(C)C)C3)c(C(F)(F)F)c2)cc1Nc1nccc(-c2cncnc2)n1 [bafetinib]
Outline: (§1)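 Soluble protein was quantified by TMTpro 16plex LC-MS/MS after channel sums were equalised. It was obtained as the supernatant after 21,000xg for 90 min from pooled aliquots of K562 cells (2×10^6 cells/mL, 10 μM compound, 30 min) heated for 3 min across 48°C-58°C and extracted in PBS with 0.5% NP-40 at 4°C. Thermal stability values are relative to control samples and come from duplicates. They are given as log2 fold changes.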

[2] = compound: Cc1cccc(CC(=O)N2CCc3c2ccc(-c2cn(C)c4ncnc(N)c24)c3F)n1
Outline: as §1

[3] = compound: Cc1cn(-c2cc(NC(=O)c3ccc(C)c(Nc4nccc(-c5cccnc5)n4)c3)cc(C(F)(F)F)c2)cn1 [nilotinib]
Outline: as §1

[4] = compound: Cc1nc(Nc2n[nH]c3c2CN(C(=O)N[C@H](CN(C)C)c2ccccc2)C3(C)C)c2sccc2n1
Outline: as §1

[5] = compound: Cc1nc(Nc2ncc(C(=O)Nc3c(C)cccc3Cl)s2)cc(N2CCN(CCO)CC2)n1 [dasatinib]
Outline: as §1

[6] = compound: Cc1ncc(-c2ccnc(Nc3ccc(S(C)(=O)=O)cc3)n2)n1C(C)C
Outline: as §1

[7] = compound: Cn1cc(-c2ccc3c(c2)CCN3C(=O)Cc2cccc(C(F)(F)F)c2)c2c(N)ncnc21
Outline: as §1

[8] = compound: Cn1cc(-c2ccc3nnc(C(F)(F)c4ccc5ncccc5c4)n3n2)cn1
Outline: as §1

[9] = compound: Cn1cncc1[C@@](N)(c1ccc(Cl)cc1)c1ccc2c(c1)c(-c1cccc(Cl)c1)cc(=O)n2C [tipifarnib]
Outline: as §1

[10] = compound: FC(F)(F)c1ccc(/C=C/c2nc(COc3ccc(CCCCn4ccnn4)cc3)co2)cc1 [mubritinib]
Outline: as §1

[11] = compound: NC(=O)Nc1cc(-c2cccc(F)c2)sc1C(=O)N[C@H]1CCCNC1
Outline: as §1

[12] = compound: NC(=O)c1cnc(N[C@@H]2CCCC[C@@H]2N)nc1Nc1cccc(-n2nccn2)c1
Outline: as §1

[13] = compound: NC1(c2ccc(-c3nc4ccn5c(=O)[nH]nc5c4cc3-c3ccccc3)cc2)CCC1
Outline: as §1

[14] = compound: NCC(=O)Nc1ccc(-n2nc(C(F)(F)F)cc2-c2ccc3c(ccc4ccccc43)c2)cc1
Outline: as §1

[15] = compound: Nc1ccccc1NC(=O)c1ccc(CNC(=O)OCc2cccnc2)cc1 [entinostat]
Outline: as §1

[16] = compound: O=C(CCCCCCC(=O)Nc1ccccc1)NO [vorinostat]
Outline: as §1

[17] = compound: O=C(CCCCCCNC(=O)c1cnc(N(c2ccccc2)c2ccccc2Cl)nc1)NO [citarinostat]
Outline: as §1

[18] = compound: O=C(O)c1ccc2c(c1)nc(Nc1cccc(Cl)c1)c1ccncc12 [silmitasertib]
Outline: as §1

[19] = compound: O=C1NC(=O)C(c2cnc3ccccn23)=C1c1cn2c3c(cc(F)cc13)CN(C(=O)N1CCCCC1)CC2
Outline: as §1

[20] = compound: c1cc(OCCN2CCCCC2)cc(-c2n[nH]c3ccc(-c4nnc[nH]4)cc23)c1
Outline: as §1

Target	log2 fold change [1]	log2 fold change [2]	log2 fold change [3]	log2 fold change [4]	log2 fold change [5]	log2 fold change [6]	log2 fold change [7]	log2 fold change [8]	log2 fold change [9]	log2 fold change [10]	log2 fold change [11]	log2 fold change [12]	log2 fold change [13]	log2 fold change [14]	log2 fold change [15]	log2 fold change [16]	log2 fold change [17]	log2 fold change [18]	log2 fold change [19]	log2 fold change [20]
MFN2 (UniProt O95140)	inactive: -0.106	inactive: 0.068	inactive: -0.002	inactive: -0.022	inactive: -0.024	inactive: -0.01	inactive: -0.004	inactive: 0.018	inactive: -0.004	inactive: 0.019	inactive: -0.081	inactive: -0.088	inactive: -0.104	inactive: -0.168	inactive: 0.014	inactive: -0.019	inactive: -0.021	inactive: -0.024	inactive: -0.019	inactive: -0.008
MEMO1 (UniProt Q9Y316)	inactive: 0.018	inactive: 0.042	inactive: 0.019	inactive: -0.03	inactive: -0.151	inactive: -0.076	inactive: 0.096	inactive: 0.026	inactive: -0.073	inactive: 0.129	inactive: 0.017	inactive: -0.052	inactive: -0.117	inactive: 0.023	inactive: -0.015	inactive: 0.067	inactive: 0.022	inactive: 0	inactive: -0.043	inactive: 0.021
MFF (UniProt Q9GZY8)	inactive: -0.065	inactive: -0.049	inactive: -0.057	inactive: -0.073	inactive: 0.014	inactive: -0.017	inactive: -0.011	inactive: -0.05	inactive: 0.073	inactive: 0.035	inactive: -0.098	active: -0.224	inactive: -0.125	inactive: -0.102	inactive: -0.015	inactive: 0.006	inactive: -0.007	inactive: 0.04	inactive: -0.06	inactive: -0.135
MCU (UniProt Q8NE86)	inactive: -0.173	inactive: 0.032	inactive: -0.017	inactive: 0.128	inactive: -0.055	inactive: -0.026	inactive: -0.03	inactive: 0	inactive: -0.005	inactive: 0.024	inactive: 0.005	inactive: -0.059	inactive: -0.142	inactive: -0.131	inactive: 0.034	inactive: -0.013	inactive: 0.075	inactive: -0.007	inactive: -0.034	inactive: -0.052
MCAM (UniProt P43121)	inactive: -0.001	inactive: -0.036	inactive: 0.047	inactive: 0.005	inactive: 0.044	inactive: -0.02	inactive: 0.028	inactive: 0.014	inactive: 0.026	inactive: 0.032	inactive: -0.008	inactive: 0.036	inactive: 0.059	inactive: -0.021	inactive: -0.013	inactive: -0.022	inactive: 0.03	inactive: -0.011	inactive: -0.054	inactive: -0.028
METTL14 (UniProt Q9HCE5)	inactive: -0.088	inactive: -0.084	inactive: 0.091	inactive: -0.078	inactive: 0.006	inactive: 0.012	inactive: 0.019	inactive: -0.012	inactive: -0.015	inactive: 0.058	inactive: -0.029	inactive: -0.002	inactive: -0.061	inactive: 0.023	inactive: -0.003	inactive: 0.002	inactive: 0.032	inactive: 0.02	inactive: -0.083	inactive: -0.047
MECR (UniProt Q9BV79)	inactive: 0.002	inactive: -0.025	inactive: 0.004	inactive: 0.007	inactive: -0.024	inactive: -0.03	inactive: 0.084	inactive: 0.022	inactive: 0.005	inactive: -0.033	inactive: -0.004	inactive: 0.02	inactive: 0.012	inactive: -0.052	inactive: -0.04	inactive: -0.017	inactive: 0.046	inactive: 0.017	inactive: -0.025	inactive: -0.043
MAT1A (UniProt Q00266)	inactive: -0.083	inactive: -0.02	inactive: 0.055	inactive: -0.023	inactive: 0.101	inactive: -0.009	inactive: -0.021	inactive: -0.005	inactive: 0.081	inactive: 0.058	inactive: 0.012	inactive: 0.044	inactive: 0.023	inactive: 0.035	inactive: -0.021	inactive: -0.024	inactive: -0.058	inactive: 0.02	inactive: -0.002	inactive: -0.009
MED13 (UniProt Q9UHV7)	inactive: 0.008	inactive: 0.331	inactive: -0.229	inactive: -0.001	inactive: -0.109	inactive: -0.42	inactive: -0.215	inactive: -0.032	inactive: -0.062	inactive: 0.045	inactive: 0.06	inactive: 0.03	inactive: -0.108	inactive: 0.155	inactive: 0.241	inactive: -0.173	inactive: 0.231	inactive: 0.041	inactive: 0.139	inactive: -0.135
MBLAC2 (UniProt Q68D91)	inactive: -0.037	inactive: -0.033	inactive: -0.017	inactive: 0.053	inactive: 0.016	inactive: -0.032	inactive: 0.027	inactive: -0.011	inactive: 0.034	inactive: 0.015	inactive: 0.007	inactive: -0.003	inactive: 0.01	inactive: -0.048	inactive: -0.041	inactive: 0.03	inactive: 0.023	inactive: 0.002	inactive: -0.034	inactive: -0.031
MCM4 (UniProt P33991)	inactive: -0.016	inactive: 0.016	inactive: -0.042	inactive: -0.002	inactive: -0.056	inactive: -0.054	inactive: 0.036	inactive: 0.053	inactive: -0.036	inactive: 0.063	inactive: 0.036	inactive: -0.078	inactive: -0.102	inactive: -0.008	inactive: 0.006	inactive: 0.031	inactive: 0.038	inactive: -0.026	inactive: -0.015	inactive: -0.012
MED4 (UniProt Q9NPJ6)	inactive: 0.023	inactive: -0.02	inactive: 0.017	inactive: 0.032	inactive: 0.024	inactive: -0.03	inactive: 0.053	inactive: -0.006	inactive: 0.097	inactive: 0.053	inactive: 0.102	inactive: -0.008	inactive: 0.003	inactive: 0.028	inactive: 0.019	inactive: -0.081	inactive: 0.032	inactive: 0.025	inactive: -0.062	inactive: -0.08
METTL18 (UniProt O95568)	inactive: -0.091	inactive: -0.049	inactive: -0.092	inactive: 0.028	inactive: 0.054	inactive: -0.023	inactive: -0.022	inactive: -0.087	inactive: 0.019	inactive: 0.036	inactive: -0.028	inactive: 0.008	inactive: -0.034	inactive: 0.023	inactive: -0.02	inactive: 0.041	inactive: -0.046	inactive: 0.03	inactive: 0	inactive: -0.016
MIA3 (UniProt Q5JRA6)	inactive: -0.061	inactive: -0.012	inactive: 0.017	inactive: -0.054	inactive: -0.014	inactive: -0.019	inactive: -0.054	inactive: -0.002	inactive: 0.029	inactive: 0.015	inactive: -0.008	inactive: -0.008	inactive: -0.02	inactive: -0.002	inactive: 0.006	inactive: -0.014	inactive: 0.013	inactive: 0.043	inactive: -0.061	inactive: -0.027
MGME1 (UniProt Q9BQP7)	inactive: -0.048	inactive: 0.024	inactive: 0.023	inactive: -0.018	inactive: -0.01	inactive: -0.001	inactive: 0.042	inactive: -0.007	inactive: -0.031	inactive: 0.022	inactive: -0.068	inactive: -0.007	inactive: -0.03	inactive: 0.008	inactive: -0.049	inactive: 0.029	inactive: 0.035	inactive: -0.002	inactive: -0.053	inactive: -0.014
ME2 (UniProt P23368)	inactive: -0.012	inactive: -0.087	inactive: 0.138	inactive: 0.029	inactive: -0.052	inactive: -0.015	inactive: -0.076	inactive: 0.001	inactive: 0.107	inactive: -0.074	inactive: -0.015	inactive: -0.034	inactive: 0.07	inactive: -0.033	inactive: -0.013	inactive: 0.058	inactive: 0.025	inactive: 0.186	inactive: -0.017	inactive: -0.093

Retrieved one by one from the entries so far (2):
Target	log2 fold change [1]	log2 fold change [2]	log2 fold change [3]	log2 fold change [4]	log2 fold change [5]	log2 fold change [6]	log2 fold change [7]	log2 fold change [8]	log2 fold change [9]	log2 fold change [10]	log2 fold change [11]	log2 fold change [12]	log2 fold change [13]	log2 fold change [14]	log2 fold change [15]	log2 fold change [16]	log2 fold change [17]	log2 fold change [18]	log2 fold change [19]	log2 fold change [20]
MED4 (UniProt Q9NPJ6)	inactive: 0.023	inactive: -0.02	inactive: 0.017	inactive: 0.032	inactive: 0.024	inactive: -0.03	inactive: 0.053	inactive: -0.006	inactive: 0.097	inactive: 0.053	inactive: 0.102	inactive: -0.008	inactive: 0.003	inactive: 0.028	inactive: 0.019	inactive: -0.081	inactive: 0.032	inactive: 0.025	inactive: -0.062	inactive: -0.08
ME2 (UniProt P23368)	inactive: -0.012	inactive: -0.087	inactive: 0.138	inactive: 0.029	inactive: -0.052	inactive: -0.015	inactive: -0.076	inactive: 0.001	inactive: 0.107	inactive: -0.074	inactive: -0.015	inactive: -0.034	inactive: 0.07	inactive: -0.033	inactive: -0.013	inactive: 0.058	inactive: 0.025	inactive: 0.186	inactive: -0.017	inactive: -0.093
